No constants are given. Whether binding was seen depends on the method and setting. In cells and extracts the contact can be indirect. Some binding calls cover weakened binding; strength is not graded here. Tags and fused reporters may be left off the sequences shown.
Target: T1, His-tagged U2AF35 (HEK-293E), Q01081
T1 chain: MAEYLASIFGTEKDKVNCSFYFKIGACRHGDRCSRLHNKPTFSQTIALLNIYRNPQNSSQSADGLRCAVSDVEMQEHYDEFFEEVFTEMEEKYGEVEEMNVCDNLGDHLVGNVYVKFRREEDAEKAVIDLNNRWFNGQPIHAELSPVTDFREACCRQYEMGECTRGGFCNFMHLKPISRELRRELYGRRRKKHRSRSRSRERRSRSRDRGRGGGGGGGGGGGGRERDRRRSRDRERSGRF
Test: pull-down; His-tagged U2AF35 expressed in 293E cells, lysate (50 mM Tris-HCl pH 8, 1% NP-40, 5 mM imidazole) on Ni-NTA agarose 1 h at 4°C, wash 0.5 M NaCl, eluted with 0.5 M imidazole; western blot; amounts by Coomassie stain against BSA
Details: remark: other sources report otherwise

binding: binds
B1: U2AF65 (co-purified from HEK-293E), P26368 1-475 (natural protein)
chain: MSDFDEFERQLNENKQERDKENRHRKRSHSRSRSRDRKRRSRSRDRRNRDQRSASRDRRRRSKPLTRGAKEEHGGLIRSPRHEKKKKVRKYWDVPPPGFEHITPMQYKAMQAAGQIPATALLPTMTPDGLAVTPTPVPVVGSQMTRQARRLYVGNIPFGITEEAMMDFFNAQMRLGGLTQAPGNPVLAVQINQDKNFAFLEFRSVDETTQAMAFDGIIFQGQSLKIRRPHDYQPLPGMSENPSVYVPGVVSTVVPDSAHKLFIGGLPNYLNDDQVKELLTSFGPLKAFNLVKDSATGLSKGYAFCEYVDINVTDQAIAGLNGMQLGDKKLLVQRASVGAKNATLVSPPSTINQTPVTLQVPGLMSSQVQMGGHPTEVLCLMNMVLPEELLDDEEYEEIVEDVRDECSKYGLVKSIEIPRPVDGVEVPGCGKIFVEFTSVFDCQKAMQGLTGRKFANRVVVTKYCDPDSYHRRDFW

Source: PMC1888729
